Record: PubChem BioAssay AID1224830 (NIAID, 2016)

Screen: 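Genes whose knock-down alters the TNF-alpha reporter response to LPS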 (primary screen)
Cells: human THP-1 monocytic leukaemia cells, TNF dual-luciferase reporter clone, PMA-differentiated to macrophage-like cells
Reagent: siRNA pool against human genes, 50 nM
Duration: LPS for 4 h, given about 3 days after siRNA transfection
Challenge: bacterial LPS (TLR4 ligand), 10 ng/ml
Detection: 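TNF firefly reporter luminescence divided by renilla, normalised to the plate median, then turned into a robust z-score for each replicate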
Direction: TNF reporter robust z-score: higher = stronger TNF reporter response to LPS
Active means: 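a well is active when its z-score exceeds 2.8 or falls below -1.5; control wells carry no call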
The deposit covers about 18,000 reagents; shown is a part drawn at random. About 2,900 of all reagents (16%) were called active. 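Calls are made per well; low scores hint the gene aids the LPS response, high scores that it dampens it.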 Entries without a mark were called inactive. Repeated entries: four replicate wells of each siRNA pool.

| Target gene | PubChem SID | TNF reporter robust z-score |
| --- | --- | --- |
| MAP1LC3A (microtubule associated protein 1 light chain 3 alpha) | SID315460408 | 0.79 |
| MAP1LC3A (microtubule associated protein 1 light chain 3 alpha) | SID315460408 | -0.34 |
| MAP1LC3A (microtubule associated protein 1 light chain 3 alpha) | SID315460408 | -0.3 |
| MAP1LC3A (microtubule associated protein 1 light chain 3 alpha) | SID315460408 | -0.79 |
| MEOX1 (mesenchyme homeobox 1) | SID315449943 | 0.77 |
| MEOX1 (mesenchyme homeobox 1) | SID315449943 | 2.45 |
| MEOX1 (mesenchyme homeobox 1) | SID315449943 | 0.33 |
| MEOX1 (mesenchyme homeobox 1) | SID315449943 | 1.15 |
| CNGA1 (cyclic nucleotide gated channel subunit alpha 1) | SID315447993 | -1.51 (active) |
| CNGA1 (cyclic nucleotide gated channel subunit alpha 1) | SID315447993 | -1.12 |
| CNGA1 (cyclic nucleotide gated channel subunit alpha 1) | SID315447993 | -0.32 |
| CNGA1 (cyclic nucleotide gated channel subunit alpha 1) | SID315447993 | 0.42 |
| IFIT1B (interferon induced protein with tetratricopeptide repeats 1B) | SID315464879 | -0.36 |
| IFIT1B (interferon induced protein with tetratricopeptide repeats 1B) | SID315464879 | -0.73 |
| IFIT1B (interferon induced protein with tetratricopeptide repeats 1B) | SID315464879 | -0.28 |
| IFIT1B (interferon induced protein with tetratricopeptide repeats 1B) | SID315464879 | -0.82 |
| ZKSCAN8 (zinc finger with KRAB and SCAN domains 8) | SID315452274 | -0.12 |
| ZKSCAN8 (zinc finger with KRAB and SCAN domains 8) | SID315452274 | 0.13 |
| ZKSCAN8 (zinc finger with KRAB and SCAN domains 8) | SID315452274 | -0.04 |
| ZKSCAN8 (zinc finger with KRAB and SCAN domains 8) | SID315452274 | -0.28 |
| SEMA4D (semaphorin 4D) | SID315454147 | 2.99 (active) |
| SEMA4D (semaphorin 4D) | SID315454147 | 2.54 |
| SEMA4D (semaphorin 4D) | SID315454147 | 0.37 |
| SEMA4D (semaphorin 4D) | SID315454147 | -0.7 |
| SEMA4D (semaphorin 4D) | SID315464259 | 0.76 |
| SEMA4D (semaphorin 4D) | SID315464259 | 0.78 |
| SEMA4D (semaphorin 4D) | SID315464259 | -0.59 |
| SEMA4D (semaphorin 4D) | SID315464259 | 0.65 |
| RABAC1 (Rab acceptor 1) | SID315454197 | 0.69 |
| RABAC1 (Rab acceptor 1) | SID315454197 | -0.96 |
| RABAC1 (Rab acceptor 1) | SID315454197 | -0.51 |
| RABAC1 (Rab acceptor 1) | SID315454197 | -1.12 |
| ERAS (ES cell expressed Ras) | SID315449313 | 0.75 |
| ERAS (ES cell expressed Ras) | SID315449313 | 0.72 |
| ERAS (ES cell expressed Ras) | SID315449313 | -0.13 |
| ERAS (ES cell expressed Ras) | SID315449313 | -0.26 |
| ZNF592 (zinc finger protein 592) | SID315453443 | -0.45 |
| ZNF592 (zinc finger protein 592) | SID315453443 | 0.4 |
| ZNF592 (zinc finger protein 592) | SID315453443 | -1.79 (active) |
| ZNF592 (zinc finger protein 592) | SID315453443 | -1.54 (active) |
| OR8B4 (olfactory receptor family 8 subfamily B member 4) | SID315463641 | -0.89 |
| OR8B4 (olfactory receptor family 8 subfamily B member 4) | SID315463641 | -0.55 |
| OR8B4 (olfactory receptor family 8 subfamily B member 4) | SID315463641 | -0.68 |
| OR8B4 (olfactory receptor family 8 subfamily B member 4) | SID315463641 | 0.56 |
| DCSTAMP (dendrocyte expressed seven transmembrane protein) | SID315459872 | -0.63 |
| DCSTAMP (dendrocyte expressed seven transmembrane protein) | SID315459872 | -0.2 |
| DCSTAMP (dendrocyte expressed seven transmembrane protein) | SID315459872 | -0.36 |
| DCSTAMP (dendrocyte expressed seven transmembrane protein) | SID315459872 | -0.39 |
| UTP15 (UTP15 small subunit processome component) | SID315460206 | 0.11 |
| UTP15 (UTP15 small subunit processome component) | SID315460206 | 0.2 |
| UTP15 (UTP15 small subunit processome component) | SID315460206 | 1.33 |
| UTP15 (UTP15 small subunit processome component) | SID315460206 | 0.82 |
| CD7 (CD7 molecule) | SID315447765 | -0.34 |
| CD7 (CD7 molecule) | SID315447765 | -0.15 |
| CD7 (CD7 molecule) | SID315447765 | -0.25 |
| CD7 (CD7 molecule) | SID315447765 | 0.47 |
| WDR47 (WD repeat domain 47) | SID315454868 | 1.42 |
| WDR47 (WD repeat domain 47) | SID315454868 | 2.1 |
| WDR47 (WD repeat domain 47) | SID315454868 | 1.91 |
| WDR47 (WD repeat domain 47) | SID315454868 | 1.72 |
| RPL35 (ribosomal protein L35) | SID315454698 | 0.43 |
| RPL35 (ribosomal protein L35) | SID315454698 | 1.91 |
| RPL35 (ribosomal protein L35) | SID315454698 | -0.04 |
| RPL35 (ribosomal protein L35) | SID315454698 | 1.26 |
| MAP3K13 (mitogen-activated protein kinase kinase kinase 13) | SID315453100 | -0.32 |
| MAP3K13 (mitogen-activated protein kinase kinase kinase 13) | SID315453100 | 0.02 |
| MAP3K13 (mitogen-activated protein kinase kinase kinase 13) | SID315453100 | 0.42 |
| MAP3K13 (mitogen-activated protein kinase kinase kinase 13) | SID315453100 | -0.99 |
| CTSE (cathepsin E) | SID315448177 | 2.43 |
| CTSE (cathepsin E) | SID315448177 | 3.86 (active) |
| CTSE (cathepsin E) | SID315448177 | -0.29 |
| CTSE (cathepsin E) | SID315448177 | 2.71 |
| RTRAF (RNA transcription, translation and transport factor) | SID315456819 | 0.62 |
| RTRAF (RNA transcription, translation and transport factor) | SID315456819 | 1.38 |
| RTRAF (RNA transcription, translation and transport factor) | SID315456819 | 0.25 |
| RTRAF (RNA transcription, translation and transport factor) | SID315456819 | 0.19 |
| CDH3 (cadherin 3) | SID315447828 | -0.72 |
| CDH3 (cadherin 3) | SID315447828 | -0.48 |
| CDH3 (cadherin 3) | SID315447828 | -0.1 |
| CDH3 (cadherin 3) | SID315447828 | -0.39 |
| MARCHF5 (membrane associated ring-CH-type finger 5) | SID315457126 | 1.82 |
| MARCHF5 (membrane associated ring-CH-type finger 5) | SID315457126 | 0.51 |
| MARCHF5 (membrane associated ring-CH-type finger 5) | SID315457126 | -2.2 (active) |
| MARCHF5 (membrane associated ring-CH-type finger 5) | SID315457126 | -0.81 |
| PADI4 (peptidyl arginine deiminase 4) | SID315455340 | -0.09 |
| PADI4 (peptidyl arginine deiminase 4) | SID315455340 | -0.8 |
| PADI4 (peptidyl arginine deiminase 4) | SID315455340 | -1.54 (active) |
| PADI4 (peptidyl arginine deiminase 4) | SID315455340 | -0.2 |
| TSEN54 (tRNA splicing endonuclease subunit 54) | SID315463719 | 0.01 |
| TSEN54 (tRNA splicing endonuclease subunit 54) | SID315463719 | -0.23 |
| TSEN54 (tRNA splicing endonuclease subunit 54) | SID315463719 | -0.57 |
| TSEN54 (tRNA splicing endonuclease subunit 54) | SID315463719 | -1.01 |
| TAAR9 (trace amine associated receptor 9) | SID315461981 | -1.29 |
| TAAR9 (trace amine associated receptor 9) | SID315461981 | -0.19 |
| TAAR9 (trace amine associated receptor 9) | SID315461981 | -0.79 |
| TAAR9 (trace amine associated receptor 9) | SID315461981 | -0.37 |
| LARP1 (La ribonucleoprotein 1, translational regulator) | SID315455190 | 0.32 |
| LARP1 (La ribonucleoprotein 1, translational regulator) | SID315455190 | -0.45 |
| LARP1 (La ribonucleoprotein 1, translational regulator) | SID315455190 | -0.31 |
| LARP1 (La ribonucleoprotein 1, translational regulator) | SID315455190 | -0.5 |
| TCIRG1 | SID315453996 | -1.16 |
| TCIRG1 | SID315453996 | 0.07 |
| TCIRG1 | SID315453996 | -1.06 |
| TCIRG1 | SID315453996 | -0.7 |
| CDON (cell adhesion associated, oncogene regulated) | SID315456382 | 1.15 |
| CDON (cell adhesion associated, oncogene regulated) | SID315456382 | 3.11 (active) |
| CDON (cell adhesion associated, oncogene regulated) | SID315456382 | 2.25 |
| CDON (cell adhesion associated, oncogene regulated) | SID315456382 | 0.22 |
| OGFOD2 | SID315459376 | -0.02 |
| OGFOD2 | SID315459376 | 1.21 |
| OGFOD2 | SID315459376 | 4.31 (active) |
| OGFOD2 | SID315459376 | 1.48 |

12 of these entries, reformatted.
{"Target gene": "ZNF592 (zinc finger protein 592)", "PubChem SID": "SID315453443", "TNF reporter robust z-score": "-1.54 (active)"}
{"Target gene": "OR8B4 (olfactory receptor family 8 subfamily B member 4)", "PubChem SID": "SID315463641", "TNF reporter robust z-score": -0.89}
{"Target gene": "OR8B4 (olfactory receptor family 8 subfamily B member 4)", "PubChem SID": "SID315463641", "TNF reporter robust z-score": -0.55}
{"Target gene": "OR8B4 (olfactory receptor family 8 subfamily B member 4)", "PubChem SID": "SID315463641", "TNF reporter robust z-score": -0.68}
{"Target gene": "OR8B4 (olfactory receptor family 8 subfamily B member 4)", "PubChem SID": "SID315463641", "TNF reporter robust z-score": 0.56}
{"Target gene": "DCSTAMP (dendrocyte expressed seven transmembrane protein)", "PubChem SID": "SID315459872", "TNF reporter robust z-score": -0.63}
{"Target gene": "DCSTAMP (dendrocyte expressed seven transmembrane protein)", "PubChem SID": "SID315459872", "TNF reporter robust z-score": -0.2}
{"Target gene": "DCSTAMP (dendrocyte expressed seven transmembrane protein)", "PubChem SID": "SID315459872", "TNF reporter robust z-score": -0.36}
{"Target gene": "DCSTAMP (dendrocyte expressed seven transmembrane protein)", "PubChem SID": "SID315459872", "TNF reporter robust z-score": -0.39}
{"Target gene": "UTP15 (UTP15 small subunit processome component)", "PubChem SID": "SID315460206", "TNF reporter robust z-score": 0.11}
{"Target gene": "UTP15 (UTP15 small subunit processome component)", "PubChem SID": "SID315460206", "TNF reporter robust z-score": 0.2}
{"Target gene": "UTP15 (UTP15 small subunit processome component)", "PubChem SID": "SID315460206", "TNF reporter robust z-score": 1.33}
